# From the supplement of paper PMC8551327
# The list shows a part of the results. Cut-off read from the data, not from the text of the source: active = 1.25 or more and inactive = the rest. Many values rest on one well or one pass, so single values are uncertain.
# Tested on: Kcc2-LUC knock-in mouse primary cortical neurons (Kcc2 promoter reporter)
# Experiment: Kcc2 promoter-driven luciferase activity relative to vehicle control (fold of vehicle (ratio)); higher = stronger Kcc2 promoter activation (Kcc2 expression enhancer)
# Details: 100 nM; 48 h
row,Structure (SMILES),Kcc2 promoter-driven luciferase activity
1,Cn1c(=O)[nH]c2nncnc2c1=O [Reumycin],inactive: 0.82
2,c1csc(C[N+]23CN4CN(CN(C4)C2)C3)c1 [1-(2-Thenyl)hexamethylenetetrammonium chloride],active: 1.34
3,C[C@@]12C(=O)OC(=O)[C@]1(C)[C@H]1CC[C@@H]2O1 [Cantharidin],inactive: 1.24
4,CC(=O)[O][Hg].c1ccc2c(c1)ccc1ccccc12,inactive: 0.5
5,"COc1ccc(-c2cc(=O)c3c(OC)c(OC)c(OC)cc3o2)cc1 [4',5,6,7-Tetramethoxyflavone]",inactive: 0.9
6,"CCOC(OCC)C(CC)[Se]c1ccccc1[N+](=O)[O-] (configuration not stated) [1-(1,1-Diethoxybutan-2-ylselanyl)-2-nitrobenzene]",inactive: 0.81
7,CC(=O)C(=O)NC1/C=C(C)\C=C/C(O)C/C=C(C)\C=C/C(O)CC2OC(=O)C1(C)C(=O)C2C (configuration not stated) [Lankacidin C],inactive: 1.08
8,C[C@@H]1OC(=O)[C@H]2C[C@H]3CCCC[C@@H]3[C@@H](/C=C/[C@H]3CCC[C@H](C)N3C)[C@@H]12 [Himbacine],inactive: 0.56
9,CC(=O)c1c(O)c(C)c(O)c(Cc2c(O)c3c(c(C(=O)/C=C/c4ccccc4)c2O)OC(C)(C)C=C3)c1O [Rottlerin],inactive: 0.57
10,N#C[C@H](O[C@@H]1O[C@H](CO[C@@H]2O[C@H](CO)[C@@H](O)[C@H](O)[C@H]2O)[C@@H](O)[C@H](O)[C@H]1O)c1ccccc1 [Amygdalin],inactive: 1.23
11,COc1cc2c(cc1OC)C13CCN4C=C5CCOC6CC(=O)N2C1C6C5CC43 (configuration not stated) [Neobrucine],inactive: 0.57
12,COC(=O)C1=C(C(=O)OC)SC2(S1)C(C(=O)OC)=C(C(=O)OC)Sc1c2ssc1=O,inactive: 0.83
13,C/C(=N\N=C(/[Se])N1CC2CCC(CC2)C1)c1ccccn1,inactive: 1.2
14,C=C1C(=O)O[C@@H]2C[C@@H](C)[C@@H]3C=CC(=O)[C@@]3(C)[C@@H](O)[C@H]12,active: 1.44
15,CCCNC1=C(C)C(=O)C2=C(C1=O)[C@H](COC(N)=O)[C@]1(OC)[C@@H]3N[C@@H]3CN21,inactive: 1.2
16,C/C1=C\[C@H](C)C[C@H](C)OC(=O)CC(c2ccc(O)cc2)NC(=O)[C@@H](Cc2c(Br)[nH]c3ccccc23)N(C)C(=O)[C@H](C)NC(=O)[C@@H](C)C1 (some centres not stated) [Jasplakinolide],inactive: 0.8
17,C=C1C(=O)O[C@@H]2[C@H]1CC[C@H](C)[C@]1(O)C=CC(=O)[C@@]21C [Parthenin],inactive: 1.07

# Reprinted at random: 2 compounds from above
row,Structure (SMILES),Kcc2 promoter-driven luciferase activity
14,C=C1C(=O)O[C@@H]2C[C@@H](C)[C@@H]3C=CC(=O)[C@@]3(C)[C@@H](O)[C@H]12,active: 1.44
13,C/C(=N\N=C(/[Se])N1CC2CCC(CC2)C1)c1ccccn1,inactive: 1.2
